According to doi:10.1101/2023.12.15.571360:
No constants are given. Whether binding was seen depends on the method and setting. Binding seen in cells or lysates may run through a third protein. Some results given as binding are weak or reduced against the parent protein; the word gives no strength.

By UniProt entry, the sequences of proteins in these tests, tags left out. Where a name states a change or a piece, a line headed by the entry shows the natural chain unless it says otherwise.
UniProt P61586: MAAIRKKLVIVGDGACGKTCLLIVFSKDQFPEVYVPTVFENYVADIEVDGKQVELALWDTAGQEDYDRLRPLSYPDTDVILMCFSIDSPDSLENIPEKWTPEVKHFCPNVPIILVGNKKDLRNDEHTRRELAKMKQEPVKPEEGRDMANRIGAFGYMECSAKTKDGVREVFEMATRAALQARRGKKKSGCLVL

Biological target: GST-RhoA-G17A (UniProt P61586)
Experiment: pull-down

- binding: binds
B1: ARHGEF2 (protein, UniProt Q60875 1-985)
chain: MSRIESLTRARIDRSKEQATKTREKEKMKEAKDARYTNGHLFTTISVSGMTMCYACNKSITAKEALICPTCNVTIHNRCKDTLANCTKVKQKQQKAALLRNNTALQSVSLRSKTTTRERPTSAIYPSDSFRQSLLGSRRGLSSLSLAKSVSTTNIAGHFNDESPLGLRQILSQSTDSLNMRNRTLSVESLIDEGVEVFYNELMSDFEMDEKDFEADSWSLAVDSSFLQQHKKEVMKKQDVIYELIQTELHHVRTLKIMTRLFRTGMLEELQMEPEVVQGLFPCVDELSDIHTRFLNQLLERRRQALCPGSTRNFVIHRLGDLLISQFSGSNAEQMRKTYSEFCSRHTKALKLYKELYARDKRFQQFIRKMTRSAVLKRHGVQECILLVTQRITKYPVLINRILQNSHGVEEEYQDLASALGLVKELLSNVDQDVHELEKEARLQEIYNRMDPRAQTPVPGKGPFGRDELLRRKLIHEGCLLWKTATGRFKDVLLLLMTDVLVFLQEKDQKYIFTSLDKPSVVSLQNLIVRDIANQAKGMFLISSGPPEMYEVHAASRDDRTTWIRVIQQSVRLCPSREDFPLIETEDKAYLRRIKTKLQQKNQALVELLQKNVELFAEMVHFQALKAGFVGMPPPALPRGLFRLESFESLRGERLLKDALREVEGLKDLLLGPCVDLPMTSREPALPLDSDSGSCPGVTANGEARTFNGSIELCRADSDSSQKDRNGNQLRSPQEEVLQPLINLYGLLHGLQAVVVQQERLMEALFPEGPERWEKLSRANSRDGEAGRAAVASVTPEKQATELALLQRQHTLLQEELRRCQRLGEERATEAGSLEARLRESEQARALLEREAEEIRRQLAALGQNEPLPAEAPWARRPLDPRRRSLPAGDALYLSFNPPQPSRGHDRLDLPVTVRSLHRPFDDREAQELGSPEDRLQDSSDPDTGSEEEVSSRLSPPHSPRDFTRMQDIPEETESRDGEPTASES
modifications: phosphorylation at T103 increased by co-expressed CaMKII-CA
